In US20250223353A1 one finds binding data, which are given here for one molecule.

Results are given in words; binding and its absence hold for the method and conditions named. Some entries that bind do so weakly or less than the wild type. Where a sequence is shown, tags or fusion partners need not be part of it.

The target of the assay is T1, mouse PVRIG-Fc protein (mouse).
T1 sequence: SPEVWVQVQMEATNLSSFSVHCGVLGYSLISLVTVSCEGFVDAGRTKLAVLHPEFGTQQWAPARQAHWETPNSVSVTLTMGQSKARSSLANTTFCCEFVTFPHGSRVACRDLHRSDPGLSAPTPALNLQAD
As to the kind of experiment: BLI (ForteBio).

B1: ADI-56249 (antibody, V domains shown)
VH: QVQLVQSGAEVKKPGSSVKVSCKASGGTFSTFAISWVRQAPGQGLEWMGDIIPIFGSNYAQKFQGRVTITADESTSTAYMELSSLRSEDTAVYYCARGPLEGKVSPFDIWGQGTMVTVSS
VL: DIVMTQSPLSLPVTPGEPASISCRSSQSLLHSTGYNYLDWYLQKPGQSPQLLIYVGSTRASGVPDRFSGSGSGTDFTLKISRVEAEDVGVYYCMQERQFPITFGGGTKVEIK
Take B1: the binding entry is reported as “binds”.
